Source: doi:10.1101/2020.02.18.954487
No constants are given. Whether binding was seen depends on the method and setting. Binding seen in cells or lysates may run through a third protein. Some binding calls cover weakened binding; strength is not graded here.

Amino acid sequences for entries named in this document (tags omitted).
UniProt Q9UKV8: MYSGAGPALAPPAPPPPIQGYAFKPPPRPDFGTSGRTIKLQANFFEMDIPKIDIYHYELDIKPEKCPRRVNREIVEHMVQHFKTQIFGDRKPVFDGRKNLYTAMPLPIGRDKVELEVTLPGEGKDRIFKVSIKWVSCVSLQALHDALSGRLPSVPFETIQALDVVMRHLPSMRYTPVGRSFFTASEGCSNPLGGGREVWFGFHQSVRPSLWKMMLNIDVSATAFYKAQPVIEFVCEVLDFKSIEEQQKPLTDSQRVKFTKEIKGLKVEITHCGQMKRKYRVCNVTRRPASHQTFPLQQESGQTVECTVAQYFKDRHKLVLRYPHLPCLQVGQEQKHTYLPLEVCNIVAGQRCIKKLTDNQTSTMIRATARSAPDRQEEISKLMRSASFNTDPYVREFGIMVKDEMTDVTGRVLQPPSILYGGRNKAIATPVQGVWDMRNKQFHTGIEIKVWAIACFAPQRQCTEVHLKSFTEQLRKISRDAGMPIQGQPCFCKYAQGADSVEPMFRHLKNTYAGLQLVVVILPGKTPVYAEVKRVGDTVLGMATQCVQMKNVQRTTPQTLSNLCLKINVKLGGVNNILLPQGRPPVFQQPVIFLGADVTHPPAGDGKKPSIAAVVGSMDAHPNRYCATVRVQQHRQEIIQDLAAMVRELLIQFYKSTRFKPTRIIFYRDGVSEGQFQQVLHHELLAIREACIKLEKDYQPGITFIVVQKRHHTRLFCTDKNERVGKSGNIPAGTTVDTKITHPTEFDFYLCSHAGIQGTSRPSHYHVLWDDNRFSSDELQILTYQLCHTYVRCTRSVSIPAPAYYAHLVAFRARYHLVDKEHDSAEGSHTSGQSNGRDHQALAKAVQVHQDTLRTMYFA
UniProt Q8NDV7: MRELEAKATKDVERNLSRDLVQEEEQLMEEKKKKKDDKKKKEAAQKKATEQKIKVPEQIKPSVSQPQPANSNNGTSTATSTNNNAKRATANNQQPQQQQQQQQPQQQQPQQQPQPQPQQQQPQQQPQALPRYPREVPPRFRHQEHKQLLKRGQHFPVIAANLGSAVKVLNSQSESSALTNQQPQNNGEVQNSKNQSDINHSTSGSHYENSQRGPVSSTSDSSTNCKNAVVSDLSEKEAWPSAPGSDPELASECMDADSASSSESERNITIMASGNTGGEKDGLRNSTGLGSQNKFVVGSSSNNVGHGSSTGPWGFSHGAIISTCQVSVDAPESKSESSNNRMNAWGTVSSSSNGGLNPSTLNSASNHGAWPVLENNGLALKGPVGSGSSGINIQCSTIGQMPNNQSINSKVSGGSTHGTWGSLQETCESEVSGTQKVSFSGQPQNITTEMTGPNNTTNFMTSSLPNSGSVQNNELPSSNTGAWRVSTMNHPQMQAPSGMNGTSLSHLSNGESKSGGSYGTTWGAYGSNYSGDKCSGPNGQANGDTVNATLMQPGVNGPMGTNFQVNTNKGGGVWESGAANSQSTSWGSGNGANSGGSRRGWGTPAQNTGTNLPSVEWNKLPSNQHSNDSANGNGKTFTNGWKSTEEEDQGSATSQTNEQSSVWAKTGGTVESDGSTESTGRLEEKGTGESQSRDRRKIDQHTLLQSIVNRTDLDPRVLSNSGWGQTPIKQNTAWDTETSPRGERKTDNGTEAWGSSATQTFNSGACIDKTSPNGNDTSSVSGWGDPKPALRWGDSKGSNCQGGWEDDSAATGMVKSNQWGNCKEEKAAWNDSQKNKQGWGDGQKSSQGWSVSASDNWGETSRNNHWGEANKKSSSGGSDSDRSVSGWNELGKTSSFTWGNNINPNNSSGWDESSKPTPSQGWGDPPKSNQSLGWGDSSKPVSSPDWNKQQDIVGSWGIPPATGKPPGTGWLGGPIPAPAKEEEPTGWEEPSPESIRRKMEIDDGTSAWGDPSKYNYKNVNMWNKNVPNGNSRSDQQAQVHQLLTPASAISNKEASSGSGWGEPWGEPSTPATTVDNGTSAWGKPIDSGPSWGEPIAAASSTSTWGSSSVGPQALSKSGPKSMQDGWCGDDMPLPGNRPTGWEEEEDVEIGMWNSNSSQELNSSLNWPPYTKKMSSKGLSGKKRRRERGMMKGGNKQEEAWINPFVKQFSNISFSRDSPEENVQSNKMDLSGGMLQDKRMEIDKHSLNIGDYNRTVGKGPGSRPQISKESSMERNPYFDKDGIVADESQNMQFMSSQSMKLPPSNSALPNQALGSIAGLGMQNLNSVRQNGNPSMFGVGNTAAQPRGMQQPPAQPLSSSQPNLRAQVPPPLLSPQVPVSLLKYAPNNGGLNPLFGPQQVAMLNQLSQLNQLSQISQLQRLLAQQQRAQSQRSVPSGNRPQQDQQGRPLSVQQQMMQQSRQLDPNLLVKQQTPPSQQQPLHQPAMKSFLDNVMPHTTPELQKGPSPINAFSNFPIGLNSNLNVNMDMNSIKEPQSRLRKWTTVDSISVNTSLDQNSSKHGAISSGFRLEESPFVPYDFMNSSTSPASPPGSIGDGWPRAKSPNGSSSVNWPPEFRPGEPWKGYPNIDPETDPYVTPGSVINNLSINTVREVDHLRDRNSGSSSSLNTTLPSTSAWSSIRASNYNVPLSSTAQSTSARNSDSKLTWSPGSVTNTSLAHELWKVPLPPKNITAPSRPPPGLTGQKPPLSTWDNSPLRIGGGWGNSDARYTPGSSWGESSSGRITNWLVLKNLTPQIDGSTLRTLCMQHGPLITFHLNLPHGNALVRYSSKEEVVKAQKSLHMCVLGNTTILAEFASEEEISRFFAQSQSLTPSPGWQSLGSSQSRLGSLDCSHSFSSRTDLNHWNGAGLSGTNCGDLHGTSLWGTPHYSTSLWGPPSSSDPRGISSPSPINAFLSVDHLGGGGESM

Assays:
[1] = target: FLAG/HA-tagged AGO1 (human) (UniProt Q9UL18); experiment: co-IP
[2] = target: FLAG/HA-tagged AGO2 (human) (UniProt Q9UKV8); experiment: co-IP

In the case of GW182 (from UniProt Q8NDV7 1-1962), the binding [1] is reported as “binds” and the binding [2] is reported as “binds”.
